Laboratory results reported in JP2000515494A.
These are yes or no findings as the source states them, for the method shown. Some binding calls cover weakened binding; strength is not graded here. For some assays here: Tags and fused reporters may be left off the sequences shown.

Sequences of proteins named here, by UniProt entry; tags and fusion partners are left off. Residues count along the entry.
UniProt P05113, residues 20-134: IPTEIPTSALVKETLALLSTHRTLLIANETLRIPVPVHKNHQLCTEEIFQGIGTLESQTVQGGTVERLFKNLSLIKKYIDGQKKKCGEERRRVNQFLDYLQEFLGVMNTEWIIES

T1: 可溶性IL-5RαFc (soluble IL-5 receptor alpha chain Fc fusion) (UniProt Q01344)
T1 sequence (looked up): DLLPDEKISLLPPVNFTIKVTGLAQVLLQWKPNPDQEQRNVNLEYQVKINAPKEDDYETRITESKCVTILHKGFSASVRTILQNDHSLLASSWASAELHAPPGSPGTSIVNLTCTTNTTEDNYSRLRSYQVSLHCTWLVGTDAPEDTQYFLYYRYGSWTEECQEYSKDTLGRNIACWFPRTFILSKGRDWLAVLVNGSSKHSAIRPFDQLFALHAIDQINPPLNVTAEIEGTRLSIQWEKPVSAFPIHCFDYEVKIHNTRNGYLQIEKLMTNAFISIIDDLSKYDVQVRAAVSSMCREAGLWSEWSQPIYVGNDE


Tests used:
[1] = biological target: T1, 可溶性IL-5RαFc (soluble IL-5 receptor alpha chain Fc fusion); assay: BIAcore: IL-5Ra-Fc captured on protein A, IL-5 injected
[2] = biological target: 組換えヒトIL-5 (recombinant human interleukin-5) (human) (UniProt P05113); assay: BIAcore: hIL-5 immobilised, IL-5Rα injected (20 μl, 90 nM) with or without prebound 4A6

Row | binding [1] | binding [2] | Molecule
1 | binds |  | 組換えヒトIL-5 (recombinant human interleukin-5) (from UniProt P05113 20-134) (ligand)
2 |  | binds | 可溶性IL-5レセプターα鎖 (soluble IL-5 receptor alpha chain) (receptor, UniProt Q01344 21-335, looked up) DLLPDEKISLLPPVNFTIKVTGLAQVLLQWKPNPDQEQRNVNLEYQVKINAPKEDDYETRITESKCVTILHKGFSASVRTILQNDHSLLASSWASAELHAPPGSPGTSIVNLTCTTNTTEDNYSRLRSYQVSLHCTWLVGTDAPEDTQYFLYYRYGSWTEECQEYSKDTLGRNIACWFPRTFILSKGRDWLAVLVNGSSKHSAIRPFDQLFALHAIDQINPPLNVTAEIEGTRLSIQWEKPVSAFPIHCFDYEVKIHNTRNGYLQIEKLMTNAFISIIDDLSKYDVQVRAAVSSMCREAGLWSEWSQPIYVGNDE
